PubChem BioAssay AID652243 – Drosophila RNAi Screening Center | 2013
Purpose: 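Fly genes required for human androgen receptor driven transcription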 (primary screen). System: Drosophila S2R+ cells. Knock-down reagent: long dsRNA against Drosophila genes. Duration: 72 h (48 h, then 24 h hormone). Challenge: synthetic androgen R1881 at 10 nM for 24 h. Read-out: 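Firefly light from an androgen-responsive reporter and Renilla control light per well, raw and unnormalised, for each of two replicates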. Reading the numbers: firefly reporter light: higher = more light from androgen-responsive reporter; Renilla control light: higher = more constitutive control signal (cell number, transfection). Active means: 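Across duplicate plates, a knock-down whose log firefly/Renilla ratio shifted a set fold down or up from the GFP/LacZ control mean was a hit; the downward cut appears as both 1.5 and 3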. Calls: active = hit: reporter lowered or raised; inactive = no hit.
The deposit covers about 24,000 reagents; this is an unselected part of those with a known target gene and a result. In the full data, 246 (1%) got an active call. 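Plates not normalised; calls are printed but the firefly/Renilla ratio behind them is not deposited; fold cut for lowering reported inconsistently.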 The raw values are shown without normalisation. Not stated in the record: the amount of reagent.

What did the screen give for pyd [DRSC14387]?
firefly reporter light, replicate 1: 1.17e5; firefly reporter light, replicate 2: 1.19e5; Renilla control light, replicate 1: 5.27e5; Renilla control light, replicate 2: 6.67e5; call: inactive

What is on record for pyd [DRSC14445]?
firefly reporter light, replicate 1: 1.55e5; firefly reporter light, replicate 2: 1.98e5; Renilla control light, replicate 1: 1.09e6; Renilla control light, replicate 2: 1.17e6; call: inactive

Which result is listed for pyd [DRSC14509]?
firefly reporter light, replicate 1: 89013; firefly reporter light, replicate 2: 1.40e5; Renilla control light, replicate 1: 1.24e6; Renilla control light, replicate 2: 1.26e6; call: inactive

With pyd [DRSC16547], how do the results read?
firefly reporter light, replicate 1: 16651; firefly reporter light, replicate 2: 41665; Renilla control light, replicate 1: 2.09e5; Renilla control light, replicate 2: 2.46e5; call: inactive

What is on record for pyd [DRSC17041]?
firefly reporter light, replicate 1: 1.02e5; firefly reporter light, replicate 2: 1.15e5; Renilla control light, replicate 1: 2.11e6; Renilla control light, replicate 2: 1.96e6; call: inactive

How did the screen score pyd [DRSC23116]?
firefly reporter light, replicate 1: 4.43e5; firefly reporter light, replicate 2: 5.81e5; Renilla control light, replicate 1: 1.38e6; Renilla control light, replicate 2: 1.83e6; call: inactive

What is on record for pyd [DRSC26890]?
firefly reporter light, replicate 1: 3.21e5; firefly reporter light, replicate 2: 2.35e5; Renilla control light, replicate 1: 4.44e5; Renilla control light, replicate 2: 4.66e5; call: inactive

For MED16 [DRSC04506], what does the deposit list?
firefly reporter light, replicate 1: 1.67e5; firefly reporter light, replicate 2: 2.37e5; Renilla control light, replicate 1: 1.52e6; Renilla control light, replicate 2: 1.65e6; call: inactive

For MED16 [DRSC26633], what does the deposit list?
firefly reporter light, replicate 1: 2.64e5; firefly reporter light, replicate 2: 2.73e5; Renilla control light, replicate 1: 4.99e5; Renilla control light, replicate 2: 4.49e5; call: inactive

Which result is listed for CG16953 [DRSC15167]?
firefly reporter light, replicate 1: 1.42e5; firefly reporter light, replicate 2: 1.32e5; Renilla control light, replicate 1: 6.82e5; Renilla control light, replicate 2: 7.71e5; call: inactive

What is on record for Echs1 [DRSC06999]?
firefly reporter light, replicate 1: 99498; firefly reporter light, replicate 2: 96470; Renilla control light, replicate 1: 2.39e6; Renilla control light, replicate 2: 2.39e6; call: inactive

For REPTOR-BP [DRSC02683], what does the deposit list?
firefly reporter light, replicate 1: 1.70e5; firefly reporter light, replicate 2: 1.28e5; Renilla control light, replicate 1: 1.55e6; Renilla control light, replicate 2: 1.24e6; call: inactive

What did the screen give for CG32668 [DRSC18879]?
firefly reporter light, replicate 1: 1.02e6; firefly reporter light, replicate 2: 5.33e5; Renilla control light, replicate 1: 1.92e6; Renilla control light, replicate 2: 1.04e6; call: inactive

Part of the list above, reformatted:
MED16 [DRSC26633]
- firefly reporter light, replicate 1: 2.64e5
- firefly reporter light, replicate 2: 2.73e5
- Renilla control light, replicate 1: 4.99e5
- Renilla control light, replicate 2: 4.49e5
- call: inactive

CG16953 [DRSC15167]
- firefly reporter light, replicate 1: 1.42e5
- firefly reporter light, replicate 2: 1.32e5
- Renilla control light, replicate 1: 6.82e5
- Renilla control light, replicate 2: 7.71e5
- call: inactive

The results go on.
What is on record for Prp18 [DRSC16802]?
firefly reporter light, replicate 1: 1.14e5; firefly reporter light, replicate 2: 1.13e5; Renilla control light, replicate 1: 8.38e5; Renilla control light, replicate 2: 8.49e5; call: inactive

How did the screen score CG9886 [DRSC00732]?
firefly reporter light, replicate 1: 8.28e5; firefly reporter light, replicate 2: 1.11e6; Renilla control light, replicate 1: 3.77e6; Renilla control light, replicate 2: 1.91e6; call: inactive

For CG9886 [DRSC26380], what does the deposit list?
firefly reporter light, replicate 1: 3.52e5; firefly reporter light, replicate 2: 2.83e5; Renilla control light, replicate 1: 9.31e5; Renilla control light, replicate 2: 8.89e5; call: inactive

For CG32111 (retired record) [DRSC09203], how do the results read?
firefly reporter light, replicate 1: 3.13e5; firefly reporter light, replicate 2: 3.48e5; Renilla control light, replicate 1: 5.85e5; Renilla control light, replicate 2: 4.72e5; call: inactive

For Cpr62Bb [DRSC08404], what does the deposit list?
firefly reporter light, replicate 1: 1.19e5; firefly reporter light, replicate 2: 1.57e5; Renilla control light, replicate 1: 1.74e6; Renilla control light, replicate 2: 2.13e6; call: inactive

For Cpr62Bb [DRSC27624], what was measured?
firefly reporter light, replicate 1: 2.50e5; firefly reporter light, replicate 2: 2.35e5; Renilla control light, replicate 1: 6.90e5; Renilla control light, replicate 2: 8.79e5; call: inactive

With mei-41 [DRSC20350], what does the deposit list?
firefly reporter light, replicate 1: 2.47e5; firefly reporter light, replicate 2: 2.24e5; Renilla control light, replicate 1: 1.67e6; Renilla control light, replicate 2: 1.37e6; call: inactive

What did the screen give for mei-41 [DRSC36630]?
call: inactive

Which result is listed for mei-41 [DRSC36631]?
call: inactive
